Measurements: patent publication US20130288956A1, “COMBINED PHARMACEUTICAL COMPOSITION AS ANTIFUNGAL AGENT” (priority 2010, published 2013)
Some results were stated once for a whole list of compounds, not compound by compound.

Tests used:
C. albicans = assay: In vitro combination effects, checkerboard method by micro dilution (FIC index); type: cell-based; conditions: Candida albicans IFM49738, resistant to azole antifungal agents
Experimental: (§1) A clinically isolated strain retained by the Medical Mycology Research Center of Chiba University (Code No. IFM) and a clinically isolated strain retained by the Life Science Research Center of Gifu University (Code No. E) were used as Candida and Aspergillus strains.
(§2) Fungus liquid obtained by static culturing at 35° C. for 48 hours in Sabouraud Dextrose liquid medium (SDB, Becton, Dickinson and Co.) was diluted with RPMI 1640 medium (Nissui Pharmaceutical Co., Ltd.) containing 0.165 M 3-(N-morpholino)propanesulfonic acid (MOPS) to prepare a fungus liquid having a fungus concentration of 1×10^3 cells/mL to 2×10^3 cells/mL.
(§3) Test Compound 1 (0.0005 μg/mL to 1.56 μg/mL) in the horizontal rows (12 wells) of a 96-well flat-bottom plate, and an antifungal agent in the form of ravuconazole (0.0015 μg/mL to 6.25 μg/mL), fluconazole (0.008 μg/mL to 32 μg/mL), voriconazole (0.0002 μg/mL to 8 μg/mL), micafungin (0.0005 μg/mL to 0.25 μg/mL), caspofungin (0.0005 μg/mL to 1 μg/mL) or amphotericin B (0.008 μg/mL to 8 μg/mL) in the vertical rows (8 wells) of the flat-bottom plate were prepared by diluting so as to blend together using RPMI 1640 medium containing 0.165 M MOPS to obtain a control group, a single Test Compound 1 group, each one of antifungal agents groups and combination groups of Test Compound 1+each one of antifungal agents.
(§4) The fungus liquids prepared in (1) were inoculated into the wells of 96-well flat-bottom plate containing 20 μL/well to 75 μL/well of the diluted test drug liquids prepared in (2) at 80 μL/well to 125 μL/well, followed by aerobically static culturing for 25 hours to 48 hours at 35° C.
(§5) Combination effects of Test Compound 1 and the antifungal agents were measured with the checkerboard method by micro dilution.
(§6) Interaction between both drugs was assessed by calculating the FIC index using the calculation formula indicated below.
(§7) The FIC index was calculated for each combination of antifungal agent concentrations that inhibited fungal growth, and the minimum value of the resulting FIC index was used as a combination FIC index.
(§8) A combination FIC index of 0.5 or less was evaluated as indicating synergistic action, that of 0.5 to 1 or less was evaluated as indicating additive action, and that of 1 to 4 or less was evaluated as indicating indifferent action.
(§9) FIC Index=(MIC value of drug A during combination use/MIC value of drug A when used alone)+(MIC value of drug B during combination use/MIC value of drug B when used alone) (Calculation Formula)

C. tropicalis = assay: as above; type: cell-based; conditions: each of Candida tropicalis strains E83037, E83039, E83043 (azole resistant), E83042 (fluconazole resistant), E83046 (voriconazole resistant)
Experimental: as §1, §2, §3, §4, §5, §6, §7, §8, §9

| Compound | Effect of combination use with Test Compound 1 (FIC index evaluation) (C. albicans) | Effect of combination use with Test Compound 1 (FIC index evaluation) (C. tropicalis) |
| --- | --- | --- |
| OC(Cn1cncn1)(Cn1cncn1)c1ccc(F)cc1F [Fluconazole, fluconazole] | synergistic (A combination FIC index of 0.5 or less was evaluated as indicating synergistic action) | synergistic (A combination FIC index of 0.5 or less was evaluated as indicating synergistic action) |
| C[C@@H](c1ncncc1F)[C@](O)(Cn1cncn1)c1ccc(F)cc1F [Voriconazole, voriconazole] | synergistic (A combination FIC index of 0.5 or less was evaluated as indicating synergistic action) | synergistic (A combination FIC index of 0.5 or less was evaluated as indicating synergistic action) |
